Not every detail of the peptide structures is certain; ends, links or a residue may be inferred. Some compounds share one wording; it may come from a single statement. Residues, ends and D or L forms follow the SMILES beside them.
Test system: Der p II primed T cell lines
Assay: Secondary T cell proliferation assay, T cell lines primed in vitro with Der p II (Examples VIII, X, XI, XII)
Settings: for T cell reactivity of overlapping Der p II peptides: 26 positive experiments, FIG. 9

| SMILES | T cell reactivity of overlapping Der p II peptides | response of this patient to Der p II peptides (patient 348, primed with 20 μg/ml purified native Der p II, data not shown) | T-cell reactivity (in words) (Der p II T-cell map and analogs of parent peptide DpII-22, data not shown) |
| --- | --- | --- | --- |
| CC[C@H](C)[C@H](NC(=O)[C@H](CCC(=O)O)NC(=O)[C@@H](N)Cc1c[nH]cn1)C(=O)N[C@@H](CCCCN)C(=O)N[C@@H](CCCCN)C(=O)N[C@H](C(=O)N[C@@H](CC(C)C)C(=O)N[C@H](C(=O)N1CCC[C@H]1C(=O)NCC(=O)N[C@@H](CS)C(=O)N[C@@H](Cc1c[nH]cn1)C(=O)NCC(=O)N[C@@H](CO)C(=O)N[C@@H](CCC(=O)O)C(=O)N1CCC[C@H]1C(=O)N[C@@H](CS)C(=O)N[C@H](C(=O)N[C@H](C(=O)N[C@@H](Cc1c[nH]cn1)C(=O)N[C@@H](CCCNC(=N)N)C(=O)NCC(=O)N[C@@H](CCCCN)C(=O)N1CCC[C@H]1C(=O)N[C@@H](Cc1ccccc1)C(=O)O)[C@@H](C)CC)[C@@H](C)CC)C(C)C)C(C)C [DP II-2] (H-HEIKKVLVPGCHGSEPCIIHRGKPF-OH; N-terminus and C-terminus assumed) | significant T cell reactivity | responds well |  |
| CC[C@H](C)[C@H](NC(=O)[C@H](CS)NC(=O)[C@@H]1CCCN1C(=O)[C@H](CCC(=O)O)NC(=O)[C@H](CO)NC(=O)CNC(=O)[C@@H](N)Cc1c[nH]cn1)C(=O)N[C@H](C(=O)N[C@@H](Cc1c[nH]cn1)C(=O)N[C@@H](CCCNC(=N)N)C(=O)NCC(=O)N[C@@H](CCCCN)C(=O)N1CCC[C@H]1C(=O)N[C@@H](Cc1ccccc1)C(=O)N[C@@H](CCC(N)=O)C(=O)N[C@@H](CC(C)C)C(=O)N[C@@H](CCC(=O)O)C(=O)N[C@@H](C)C(=O)N[C@H](C(=O)N[C@@H](Cc1ccccc1)C(=O)N[C@@H](CCC(=O)O)C(=O)N[C@@H](C)C(=O)N[C@@H](CC(N)=O)C(=O)N[C@@H](CCC(N)=O)C(=O)N[C@@H](CC(N)=O)C(=O)N[C@H](C(=O)N[C@@H](CCCCN)C(=O)N[C@H](C(=O)N[C@@H](C)C(=O)O)[C@@H](C)O)[C@@H](C)O)C(C)C)[C@@H](C)CC [DP II-3.1] (H-HGSEPCIIHRGKPFQLEAVFEANQNTKTA-OH; N-terminus and C-terminus assumed) |  |  | high T-cell reactivity |
| CC[C@H](C)[C@H](NC(=O)[C@H](CS)NC(=O)[C@@H]1CCCN1C(=O)[C@H](CCC(=O)O)NC(=O)[C@H](CO)NC(=O)CNC(=O)[C@@H](N)Cc1c[nH]cn1)C(=O)N[C@H](C(=O)N[C@@H](Cc1c[nH]cn1)C(=O)N[C@@H](CCCNC(=N)N)C(=O)NCC(=O)N[C@@H](CCCCN)C(=O)N1CCC[C@H]1C(=O)N[C@@H](Cc1ccccc1)C(=O)N[C@@H](CCC(N)=O)C(=O)N[C@@H](CC(C)C)C(=O)N[C@@H](CCC(=O)O)C(=O)N[C@@H](C)C(=O)N[C@H](C(=O)N[C@@H](Cc1ccccc1)C(=O)N[C@@H](CCC(=O)O)C(=O)N[C@@H](C)C(=O)N[C@H](C(=O)N[C@@H](CCC(N)=O)C(=O)N[C@@H](CC(N)=O)C(=O)N[C@H](C(=O)N[C@@H](CCCCN)C(=O)N[C@H](C(=O)N[C@@H](C)C(=O)O)[C@@H](C)O)[C@@H](C)O)C(C)C)C(C)C)[C@@H](C)CC [DP II-3] (H-HGSEPCIIHRGKPFQLEAVFEAVQNTKTA-OH; N-terminus and C-terminus assumed) | significant T cell reactivity |  |  |

Source: patent US7288256B1, “T cell epitopes of the major allergens from dermatophagoides (house dust mite)” (Merck Patent GmbH, priority 1991, dated 2007)
